Measurements: PubChem BioAssay AID720533 (National Center for Advancing Translational Sciences (NCATS), 2013)
Several values for one entry are separate records, joined by “and”; a condition that tells them apart may be missing. Identical values can stand only once. Screen size: about 18,000 compounds; about 750 (4.2%) were called active. This list was built around the results that the source calls inconclusive (neither active nor inactive); the mix of calls is not that of the screen. Calls come from the whole dose curve; tested in HEK293 cells. Potencies beside an inconclusive call are fits to weak or partial responses and may not hold up.

assay: qHTS for Inhibitors of binding or entry into cells for Lassa Virus; conditions: Lassa virus pseudotyped entry inhibition, cell-based qHTS; activity change, negative = inhibition: at 49.2 µM (top of the series) unless noted
% is set by controls: 0 for no effect and ±100 for the full control effect; potency is the fitted concentration of half-maximal effect.

Row | SMILES | Potency | activity change, negative = inhibition
1 | CC(=O)c1ccc(OCc2cn(CC(=O)c3ccc(O)cc3)nn2)c(F)c1 | inactive | 
2 | COC(=O)C1=C(C)N(Cc2ccccc2)C(=O)NC1c1cccc(C(F)(F)F)c1 (stereo not drawn) |  | inactive: 5.1% [at 8.59 µM]
3 | CC[C@H](c1ccc(O)cc1)[C@@H](CC)c1ccc(O)cc1 | inconclusive: 1.12 µM [inhibitor, full curve, poor fit] | 
4 | NCCc1ccc(O)c(O)c1 |  | inconclusive: -38.4% [inhibitor]
5 | O=C(c1cccc(Cl)c1)N1CCCC(Cn2cc(C(=O)N3CCCC3)nn2)C1 (stereo not drawn) | inactive | 
6 | COP(=O)(OC)OC=C(Cl)Cl | inconclusive: 25.1 µM [inhibitor, partial curve] | 
7 | C=C1C2CC[C@@]3(C)C(c4ccoc4)OC(=O)C[C@@]13OC1CC(O)C(C)(C)C(CC(=O)OC)[C@@]12C (stereo partly drawn) | inactive | 
8 | Cc1cccc(C(=O)N2CCC(=O)N([C@H](COCc3ccccc3)Cc3ccccc3)CC2)c1 | inconclusive: 5.01 µM [inhibitor, full curve] | 
9 | CC(=O)c1c(O)c(C)c(O)c(Cc2c(O)c3c(c(C(=O)/C=C\c4ccccc4)c2O)OC(C)(C)C=C3)c1O | active: 15.8 µM | 
10 | CCN(CCCCO)c1nc(C)nc2c1c(C)c(C)n2-c1c(C)cc(C)cc1C | inconclusive: 12.6 µM [inhibitor, single point] | 
11 | Cn1cnc2c(F)c(Nc3ccc(Br)cc3Cl)c(C(=O)NOCCO)cc21 | inactive | 
12 | Fc1cccc(COc2ccc(Nc3ncnc4sc(-c5cccs5)cc34)cc2Cl)c1 | inconclusive: 15.8 µM [inhibitor, partial curve, poor fit] | 
13 | COc1cc(=O)n2c(c1C(=O)N(C)Cc1nonc1C)CCN(Cc1c(F)cccc1F)CC2 | active: 11.2 µM | 
14 | CC(CN(C)C)CN1c2ccccc2CCc2ccccc21 (stereo not drawn) | inconclusive: 11.2 µM [inhibitor, partial curve, poor fit] | 
15 | C[C@H]1[C@H]2CC[C@H]3[C@@H]4CC=C5C[C@@H](N(C)C)CC[C@]5(C)[C@H]4CC[C@]23CN1C | inactive | 
16 | O[C@@H]1[C@@H]2c3cc4c(cc3CN3CCC(=C[C@@H]1O)[C@H]23)OCO4 | inconclusive: 14.1 µM [inhibitor, single point] | 
17 | COc1cc(OC)c2c(-c3ccccc3)cc(=O)oc2c1C(CCN1CCOCC1)c1ccc(N(C)C)cc1 (stereo not drawn) | inconclusive: 20 µM [inhibitor, partial curve, poor fit] | 
18 | Cc1ccc(C(=O)Cn2c3c(sc2=N)CCCC3)cc1 | inconclusive: 31.6 µM [inhibitor, single point] and inconclusive: 14.1 µM [inhibitor, single point] | 
